This passage reports binding results from paper doi:10.1101/155614.

No constants are given. Whether binding was seen depends on the method and setting. A result given as binding can be weak or reduced; the word gives no strength.

For this assay, the target named is T1, mature GDF8 (growth/differentiation factor 8, myostatin), unbound mature ligand (UniProt O14793).
T1 sequence: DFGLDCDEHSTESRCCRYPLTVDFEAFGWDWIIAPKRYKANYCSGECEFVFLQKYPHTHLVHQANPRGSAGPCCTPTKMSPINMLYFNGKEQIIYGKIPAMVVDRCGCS
As to the kind of experiment: SEC.

Turning to “human GDF8 prodomain (residues 24-262) 4xCtoS, I53E (from UniProt O14793) (domain or fragment)”, the binding result is given as “no binding”.

Regarding “human GDF8 prodomain (residues 24-262) 4xCtoS, I56A (from UniProt O14793) (domain or fragment)”, the binding result is recorded as “binds”.
